These are yes or no findings as the source states them, for the method shown. Binding seen in cells or lysates may run through a third protein. Here binding means that the protein was enriched with, or labelled near, the bait; the list need not be complete.
Molecular target: 3xFLAG-KLF2 wild-type (UniProt Q60843)
Experiment: affinity purification with mass spectrometry; wild-type or Klf2 delta/delta mESCs transfected with 3xFLAG-KLF2 WT or 4A; FLAG IP; interacting proteins identified by mass spectrometry and ranked by spectral counting (WT against 4A)

Protein sequences, listed by entry. Tags and fused reporters are not part of them.
UniProt Q60843: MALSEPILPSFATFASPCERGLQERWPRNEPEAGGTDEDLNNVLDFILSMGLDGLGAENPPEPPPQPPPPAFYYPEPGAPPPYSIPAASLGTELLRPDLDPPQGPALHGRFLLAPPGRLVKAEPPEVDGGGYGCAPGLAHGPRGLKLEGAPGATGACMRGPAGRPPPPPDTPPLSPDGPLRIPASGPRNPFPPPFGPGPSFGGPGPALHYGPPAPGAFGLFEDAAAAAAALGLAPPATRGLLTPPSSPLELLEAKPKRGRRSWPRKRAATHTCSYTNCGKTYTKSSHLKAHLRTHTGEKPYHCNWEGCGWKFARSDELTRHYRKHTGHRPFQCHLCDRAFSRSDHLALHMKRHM
UniProt Q9WTX6: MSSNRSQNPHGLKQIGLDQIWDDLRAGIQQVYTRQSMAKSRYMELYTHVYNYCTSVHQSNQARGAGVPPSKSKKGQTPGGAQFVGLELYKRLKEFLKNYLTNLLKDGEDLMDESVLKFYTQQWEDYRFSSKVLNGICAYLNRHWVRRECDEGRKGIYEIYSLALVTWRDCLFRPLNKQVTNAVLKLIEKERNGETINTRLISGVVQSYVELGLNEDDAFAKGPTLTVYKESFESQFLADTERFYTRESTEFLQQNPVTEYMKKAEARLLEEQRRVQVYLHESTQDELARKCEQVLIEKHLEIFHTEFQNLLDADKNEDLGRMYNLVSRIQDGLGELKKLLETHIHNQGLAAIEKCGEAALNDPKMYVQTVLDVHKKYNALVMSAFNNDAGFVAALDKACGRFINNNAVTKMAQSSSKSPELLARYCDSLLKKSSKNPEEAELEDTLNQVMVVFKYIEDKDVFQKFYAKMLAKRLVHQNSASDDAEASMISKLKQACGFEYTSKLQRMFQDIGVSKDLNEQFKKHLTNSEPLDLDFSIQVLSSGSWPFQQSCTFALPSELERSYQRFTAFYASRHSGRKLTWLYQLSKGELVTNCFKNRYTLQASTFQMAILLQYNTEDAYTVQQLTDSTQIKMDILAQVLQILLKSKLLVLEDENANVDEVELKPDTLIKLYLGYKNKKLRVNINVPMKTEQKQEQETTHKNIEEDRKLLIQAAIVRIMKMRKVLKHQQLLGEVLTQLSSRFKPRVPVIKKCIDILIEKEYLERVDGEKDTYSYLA
UniProt Q8VBV4: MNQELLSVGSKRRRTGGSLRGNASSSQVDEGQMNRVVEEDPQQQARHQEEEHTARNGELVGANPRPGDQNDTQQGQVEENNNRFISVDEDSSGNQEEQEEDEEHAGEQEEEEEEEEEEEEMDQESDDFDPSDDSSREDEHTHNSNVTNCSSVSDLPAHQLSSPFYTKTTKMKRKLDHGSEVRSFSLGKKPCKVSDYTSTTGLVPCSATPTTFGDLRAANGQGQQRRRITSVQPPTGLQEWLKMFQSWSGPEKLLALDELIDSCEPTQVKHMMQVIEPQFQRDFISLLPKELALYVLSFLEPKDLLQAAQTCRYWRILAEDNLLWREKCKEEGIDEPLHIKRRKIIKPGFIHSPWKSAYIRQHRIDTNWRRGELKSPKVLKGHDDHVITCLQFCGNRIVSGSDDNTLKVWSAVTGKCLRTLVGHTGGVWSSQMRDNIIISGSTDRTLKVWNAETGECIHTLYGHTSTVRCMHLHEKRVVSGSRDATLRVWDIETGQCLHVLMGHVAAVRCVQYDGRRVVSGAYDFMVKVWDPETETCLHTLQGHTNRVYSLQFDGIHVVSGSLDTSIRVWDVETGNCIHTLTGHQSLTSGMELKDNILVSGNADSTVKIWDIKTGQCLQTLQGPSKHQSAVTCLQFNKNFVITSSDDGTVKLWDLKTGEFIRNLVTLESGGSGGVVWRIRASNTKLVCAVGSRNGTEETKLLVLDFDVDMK

Substance | binding
CUL1 (endogenous, mESCs) (from UniProt Q9WTX6 1-776) | binds
FBW7 (endogenous, mESCs) (from UniProt Q8VBV4 1-710) | binds
